# Measurements reported in PubChem BioAssay AID743454 (Peter MacCallum Cancer Centre, 2014).
# Assay: 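Search for knock-downs that restore vorinostat killing in resistant colon cancer cells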 (primary screen)
# Cells: human HCT116-VR colon cancer cells, selected for vorinostat resistance
# Knock-down reagent: siRNA pool against human genes, 40 nM siRNA pool
# Timing: vorinostat for 24 h, read-out about 72 h after transfection
# Challenge: vorinostat at 2.5 µM final
# Detection: 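Cell viability by CellTiter-Fluor and caspase 3/7 activity by luminescence, each scaled to mock wells per plate, duplicates averaged, then robust z-scored over all plates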
# Reading the numbers: viability robust z-score: higher = more viable cells than screen typical; caspase robust z-score: higher = more caspase 3/7 activity than screen typical
# Active means: 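a knock-down is a hit when classed RV1 or RV2 for lowered viability, or CA1 or CA2 for caspase activation; those lethal without drug were dropped; hits were retested singly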
# The deposit covers about 18,000 reagents; below is a random part of them. 450 of all reagents (2.5%) count as active. 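Single biological run; no consistent viability z cut-off exists, so the class columns, not z-scores, define the calls.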 Entries without a mark were called inactive.
gene knocked down,viability hit class,caspase hit class,viability robust z-score,caspase robust z-score
SLC35F6,no change,no change,-0.19,-0.85
GBP1,no change,no change,0.28,2.21
PNPLA1,no change,no change,-0.5,0.09
ANO6,no change,no change,0.6,0.08
CHST9,no change,no change,-1.91,1.73
AP1B1,no change,no change,-1.22,2.09
NLRP12,no change,no change,-0.44,1.33
PRRX2,no change,no change,1.62,-0.46
FGF20,no change,no change,-0.54,0.21
ZNF777,no change,no change,-0.56,-0.16
IKZF3,no change,no change,0.84,-0.66
NCF4,no change,no change,1.37,2.63
SPRYD4,no change,no change,1.47,-0.62
CLPP,no change,no change,-0.22,2.01
RBMY1D,no change,no change,0.66,-0.56
NRIP1,no change,no change,-0.29,-0.88
USP46,no change,no change,0.31,-0.72
RRS1,no change,no change,-1.18,3.08
VPS45,no change,no change,-0.76,-0.29
NOL3,no change,no change,0.82,1.68
SULT1C2,no change,no change,-0.8,-1.25
CD82,no change,no change,0.28,-0.85
FRAS1,no change,no change,0,0.06
ZSWIM2,no change,no change,-0.26,-0.66
CLYBL,no change,no change,0.23,-0.19
DOP1A,no change,no change,0.2,0.06
TMEM138,no change,no change,0.02,1.09
CD70,no change,no change,-0.15,-0.9
DEFB103A,no change,no change,0.5,-0.21
PLK2,no change,no change,1.18,-0.39
KLK1,no change,no change,-0.16,1.25
SYAP1,no change,no change,2.55,0.12
CAMSAP3,no change,no change,0.19,-0.46
GPR31,no change,no change,-1.17,2.49
CRYBG1,no change,no change,0.94,0.97
COA1,no change,no change,1,-0.88
HIGD1A,no change,no change,0.6,-0.68
SLC67A2,no change,no change,0.04,-0.11
PRDM2,no change,no change,2.7,0.16

4 of these entries in another layout.
NLRP12 — viability hit class = no change; caspase hit class = no change; viability robust z-score = -0.44; caspase robust z-score = 1.33
PRRX2 — viability hit class = no change; caspase hit class = no change; viability robust z-score = 1.62; caspase robust z-score = -0.46
FGF20 — viability hit class = no change; caspase hit class = no change; viability robust z-score = -0.54; caspase robust z-score = 0.21
ZNF777 — viability hit class = no change; caspase hit class = no change; viability robust z-score = -0.56; caspase robust z-score = -0.16
